Results from patent publication US20250027072A1, “METHODS AND COMPOSITIONS RELATED TO ENGINEERED CANNABINOID RECEPTORS” (priority 2021, published 2025).
Not every entry of the source has a single result; some have several. The list is limited to them. An entry can have further records. Results that share an entry differ, and nothing given here explains why; dose, time, organism, isomer or construct need not be as stated for each record.

By UniProt entry, the sequences of proteins in these tests, tags left out. Residues count along the entry.
UniProt P21554, whole entry: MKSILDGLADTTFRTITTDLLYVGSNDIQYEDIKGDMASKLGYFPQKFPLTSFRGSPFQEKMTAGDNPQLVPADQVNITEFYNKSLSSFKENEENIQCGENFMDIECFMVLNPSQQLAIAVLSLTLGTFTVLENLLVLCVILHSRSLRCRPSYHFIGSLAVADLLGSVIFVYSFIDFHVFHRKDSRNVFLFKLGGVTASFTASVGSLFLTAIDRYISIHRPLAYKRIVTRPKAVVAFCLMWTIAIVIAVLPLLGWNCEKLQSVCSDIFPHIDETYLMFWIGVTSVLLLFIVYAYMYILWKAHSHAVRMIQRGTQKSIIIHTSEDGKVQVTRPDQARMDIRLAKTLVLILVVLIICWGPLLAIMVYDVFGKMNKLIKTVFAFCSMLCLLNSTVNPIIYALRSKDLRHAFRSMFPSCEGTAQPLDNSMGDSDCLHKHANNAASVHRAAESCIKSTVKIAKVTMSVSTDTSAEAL
UniProt P21554, 90-472 limits assumed: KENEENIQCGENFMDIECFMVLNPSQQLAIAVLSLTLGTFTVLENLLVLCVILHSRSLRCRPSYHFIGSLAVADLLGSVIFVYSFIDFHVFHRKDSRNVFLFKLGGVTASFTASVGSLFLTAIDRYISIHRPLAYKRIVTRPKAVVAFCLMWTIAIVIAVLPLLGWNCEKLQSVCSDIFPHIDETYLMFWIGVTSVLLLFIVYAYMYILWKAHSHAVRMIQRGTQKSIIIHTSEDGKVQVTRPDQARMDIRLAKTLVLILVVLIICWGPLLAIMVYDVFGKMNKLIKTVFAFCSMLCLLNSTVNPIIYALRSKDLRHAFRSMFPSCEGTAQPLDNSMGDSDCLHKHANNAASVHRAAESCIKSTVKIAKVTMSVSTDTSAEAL

Target: human Cannabinoid Receptor 1 (CB1R) (Homo sapiens, UniProt P21554)
Test: CB1R yeast biosensor signaling assay (ZsGreen reporter, flow cytometry)
Type: cell-based

For `CCCCC/C=C\C/C=C\C/C=C\C/C=C\CCCC(=O)NCCCl` [ACEA], the EC50 was 145 nM and 36.6 nM and the “on/off ratio (fold activation)” value was < 4 fold and approximately 7 fold and 15 fold and 28 fold.
